# No constants are given. Whether binding was seen depends on the method and setting. Some results given as binding are weak or reduced against the parent protein; the word gives no strength.
# By UniProt entry, the sequences of proteins in these tests, tags left out. Residues count along the entry.
# UniProt A0A0D1DWQ2, residues 22-290: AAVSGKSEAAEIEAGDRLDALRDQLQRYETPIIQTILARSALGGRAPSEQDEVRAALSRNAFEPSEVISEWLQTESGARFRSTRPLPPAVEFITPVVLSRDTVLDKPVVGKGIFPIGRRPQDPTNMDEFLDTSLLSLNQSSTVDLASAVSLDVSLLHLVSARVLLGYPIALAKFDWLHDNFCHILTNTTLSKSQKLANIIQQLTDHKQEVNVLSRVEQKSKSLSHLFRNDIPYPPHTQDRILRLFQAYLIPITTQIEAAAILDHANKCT
# Target: chorismate mutase (Cmu1), GAL4 fusions
# Assay: two-hybrid
substance,measurement,value
"chorismate mutase (Cmu1), GAL4 fusions (from UniProt A0A0D1DWQ2 22-290) (enzyme)",binding,binds
